Data source: PubChem BioAssay AID1259308 (NCATS, 2017)
Shown is a random part of about 59,000 reagents. Of all reagents, about 1,510 (2.6%) got an active call. 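Calls use total luciferase alone and ignore viability, so some active siRNAs may act by altering cell number.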 Unmarked entries are inactive. Reagents against one gene are numbered here. Not all columns of the deposit are shown. No sequences are given here.

Aim: 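Genes whose loss raises luciferase production in HEK293 cells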 (primary screen)
System: human HEK293 embryonic kidney cells stably expressing firefly luciferase (HEK-CMV-Luc2-Hygro)
Reagents: single siRNA against human genes, 0.8 pmol siRNA per well
Timing: 72 h
Measurement: 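Luciferase light (ONE-Glo) measured on one replicate plate set and viability (CellTiter-Glo) on the other, scaled to a negative control siRNA, with robust z-scores and luciferase per cell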
Direction: total luciferase, z-score: higher = more reporter protein produced
Hit rule: 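Active when the median/MAD z-score for overall luciferase is greater than 3; a gene was taken forward for validation with new siRNAs if at least two of its three siRNAs passed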
Calls: active = raised luciferase; inactive = no rise

MRPL57 (mitochondrial ribosomal protein L57) #1
- total luciferase, z-score: 0.0568

MRPL57 (mitochondrial ribosomal protein L57) #2
- total luciferase, z-score: -1.24

MRPL57 (mitochondrial ribosomal protein L57) #3
- total luciferase, z-score: -1.22

CA5B (carbonic anhydrase 5B) #1
- total luciferase, z-score: -1.24

CA5B (carbonic anhydrase 5B) #2
- total luciferase, z-score: -1.58

CA5B (carbonic anhydrase 5B) #3
- total luciferase, z-score: -0.278

CUEDC2 (CUE domain containing 2) #1
- total luciferase, z-score: -0.192

CUEDC2 (CUE domain containing 2) #2
- total luciferase, z-score: -0.763

CUEDC2 (CUE domain containing 2) #3
- total luciferase, z-score: 1.79

ABCC1 #1
- total luciferase, z-score: -1.36

ABCC1 #2
- total luciferase, z-score: -0.00674

ABCC1 #3
- total luciferase, z-score: 0.797

ANKS4B (ankyrin repeat and sterile alpha motif domain containing 4B) #1
- total luciferase, z-score: 1.56

ANKS4B (ankyrin repeat and sterile alpha motif domain containing 4B) #2
- total luciferase, z-score: 3.26 (active)

ANKS4B (ankyrin repeat and sterile alpha motif domain containing 4B) #3
- total luciferase, z-score: 0.06

CENPT (centromere protein T) #1
- total luciferase, z-score: 1.41

CENPT (centromere protein T) #2
- total luciferase, z-score: 0.235

CENPT (centromere protein T) #3
- total luciferase, z-score: 0.471

R3HDML (R3H domain containing like) #1
- total luciferase, z-score: 0.136

R3HDML (R3H domain containing like) #2
- total luciferase, z-score: 0.164

R3HDML (R3H domain containing like) #3
- total luciferase, z-score: 1.43

ARHGAP39 (Rho GTPase activating protein 39) #1
- total luciferase, z-score: 1.11

ARHGAP39 (Rho GTPase activating protein 39) #2
- total luciferase, z-score: 0.181

ARHGAP39 (Rho GTPase activating protein 39) #3
- total luciferase, z-score: -1.32

LOC643554 (ornithine aminotransferase pseudogene) #1
- total luciferase, z-score: -0.382

LOC643554 (ornithine aminotransferase pseudogene) #2
- total luciferase, z-score: 2.64

LOC643554 (ornithine aminotransferase pseudogene) #3
- total luciferase, z-score: -1.76

CEP170B (centrosomal protein 170B) #1
- total luciferase, z-score: -0.258

CEP170B (centrosomal protein 170B) #2
- total luciferase, z-score: -0.957

CEP170B (centrosomal protein 170B) #3
- total luciferase, z-score: -0.277

BLTP3B (bridge-like lipid transfer protein family member 3B) #1
- total luciferase, z-score: 0.949

BLTP3B (bridge-like lipid transfer protein family member 3B) #2
- total luciferase, z-score: 1.45

BLTP3B (bridge-like lipid transfer protein family member 3B) #3
- total luciferase, z-score: -0.243

AFG3L2 (AFG3 like matrix AAA peptidase subunit 2) #1
- total luciferase, z-score: 0.537

AFG3L2 (AFG3 like matrix AAA peptidase subunit 2) #2
- total luciferase, z-score: -0.425

AFG3L2 (AFG3 like matrix AAA peptidase subunit 2) #3
- total luciferase, z-score: -1.92

CPEB2-DT (CPEB2 divergent transcript) #1
- total luciferase, z-score: 1.08

CPEB2-DT (CPEB2 divergent transcript) #2
- total luciferase, z-score: 1.55

CPEB2-DT (CPEB2 divergent transcript) #3
- total luciferase, z-score: -0.317

SPSB3 (splA/ryanodine receptor domain and SOCS box containing 3) #1
- total luciferase, z-score: -1.63

SPSB3 (splA/ryanodine receptor domain and SOCS box containing 3) #2
- total luciferase, z-score: -1.94

SPSB3 (splA/ryanodine receptor domain and SOCS box containing 3) #3
- total luciferase, z-score: 1.11
